Results taken from PubChem BioAssay AID743255 (National Center for Advancing Translational Sciences (NCATS), 2014).
Out of some 390,000 compounds screened, about 910 (0.23%) were called active. Inconclusive results, whose numbers are uncertain, are shown with a selection of clear calls. Calls follow the shape of the dose curve; as a rule, active = well fitted inhibition curve with a large enough effect; inconclusive = small, poorly fitted or top-dose-only effect; inactive = no such curve, though single readings can be large or run the other way. Where the call is inconclusive, the potency comes from a doubtful curve fit.

Protein sequences, listed by entry. Tags and fused reporters are not part of them. Lines headed by an entry give the natural chain unless they say otherwise; changes in a name come on top.
UniProt O94782: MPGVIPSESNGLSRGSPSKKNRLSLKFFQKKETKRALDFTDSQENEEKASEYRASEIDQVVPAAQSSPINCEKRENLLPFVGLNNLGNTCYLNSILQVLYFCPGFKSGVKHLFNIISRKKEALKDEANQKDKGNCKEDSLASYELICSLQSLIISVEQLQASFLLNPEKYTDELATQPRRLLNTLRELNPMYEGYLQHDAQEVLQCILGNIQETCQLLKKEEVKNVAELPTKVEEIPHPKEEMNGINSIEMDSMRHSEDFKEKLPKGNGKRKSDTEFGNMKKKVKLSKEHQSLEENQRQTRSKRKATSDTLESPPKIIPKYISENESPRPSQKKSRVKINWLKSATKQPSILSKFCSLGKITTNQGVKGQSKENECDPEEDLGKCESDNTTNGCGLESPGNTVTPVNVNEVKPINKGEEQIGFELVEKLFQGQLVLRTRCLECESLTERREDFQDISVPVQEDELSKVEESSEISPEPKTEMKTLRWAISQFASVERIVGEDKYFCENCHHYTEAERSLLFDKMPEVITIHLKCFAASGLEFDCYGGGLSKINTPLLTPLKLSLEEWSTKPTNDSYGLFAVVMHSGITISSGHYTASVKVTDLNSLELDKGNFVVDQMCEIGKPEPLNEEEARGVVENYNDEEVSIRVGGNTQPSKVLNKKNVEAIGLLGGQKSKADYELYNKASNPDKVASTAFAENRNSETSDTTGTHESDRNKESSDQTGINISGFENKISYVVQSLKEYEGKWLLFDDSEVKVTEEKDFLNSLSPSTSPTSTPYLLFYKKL

Target: Ubiquitin carboxyl-terminal hydrolase 1 (Homo sapiens) (UniProt O94782)
Assay: Inhibitors of USP1/UAF1: Primary Screen; also: nearly all actives have a fitted effect of over 60% in size
Conditions: recombinant USP1/UAF1, Ub-Rhodamine cleavage fluorescence; activity change, negative = inhibition: at 57.1 µM (top of the series)
How it was run: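 Step one: compound is pinned into 1nM USP1/UAF1 in HEPES pH 7.8 buffer with TCEP. Step two: 15 min room-temperature incubation. Step three: Ub-Rho (150nM final) starts cleavage, tracked by fluorescence over six one-minute reads.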
% is scaled to controls: 0 for no effect and ±100 for the full control effect; potency is read from the fitted curve at half-maximal effect.

| SMILES | Potency | activity change, negative = inhibition |
| --- | --- | --- |
| CCc1ccc(C2C(C#N)=C(N)SC(N)=C2C#N)cc1 | inconclusive: 15.8 µM [inhibitor, partial curve, poor fit] | – |
| CN(C)S(=O)(=O)Oc1cccc(C(=O)Nc2ccc(Cl)cc2)c1 | inconclusive: 50.1 µM [inhibitor, partial curve, poor fit] | – |
| Cc1ccc(Nc2cc(-c3ccccc3)nc(C)n2)cc1 | inconclusive: 25.1 µM [inhibitor, partial curve, poor fit] | – |
| COc1c(Br)cc(Br)cc1/C=N/n1c(C)nnc1C | – | inactive: -16.7% |
| CC(C)c1c(C(=O)N/N=C2\CCc3ccccc32)nnn1-c1nonc1N | – | inactive: -5.77% |
| c1ccc(Cc2noc(CN3CCN(C4CCc5ccccc5C4)CC3)n2)cc1 (stereo not given) | inconclusive: 0.891 µM [inhibitor, full curve, poor fit] | – |
| Cc1ccc(S(=O)(=O)c2cn(CC(=O)Nc3ccc4c(c3)OCO4)c3ccc(F)cc3c2=O)cc1 | inconclusive: 20 µM [inhibitor, partial curve, poor fit] | – |
| Cc1cccc(CSCCNC(=O)CN(c2ccccc2)S(=O)(=O)N(C)C)c1 | inconclusive: 0.631 µM [inhibitor, full curve, poor fit] | – |
| COc1cccc(C(=O)NC(=S)Nc2ccc(Cl)cc2C(=O)O)c1 | – | inactive: -21.5% |
| CCc1cccc(NC(=O)c2ccc3c(=O)n4nc(Nc5ccccc5OC)sc4nc3c2)c1 | inconclusive: 4.47 µM [inhibitor, single point] | – |
| CCC(C)(C)c1ccc(Oc2cccc(C(=O)O)c2)cc1 | inconclusive: 44.7 µM [inhibitor, partial curve, poor fit] | – |
| CC(=O)Oc1ccc(C(=O)Nc2cccc(C(=O)c3cccc(NC(=O)c4ccc(OC(C)=O)cc4)c3)c2)cc1 | inconclusive: 25.1 µM [inhibitor, single point] | – |
| Cc1ccc(NC(=O)[C@H](Cc2ccccc2)N2Cc3ccccc3C2=O)cc1 | inconclusive: 79.4 µM [inhibitor, partial curve, poor fit] | – |
| Cc1nc2c(-c3ccc(F)cc3)c(C)nn2c(C)c1CCC(=O)N1CCN(c2ccccn2)CC1 | inconclusive: 39.8 µM [inhibitor, partial curve, poor fit] | – |
| O=C(NCc1ccccc1CN1CCCC1)c1cccc(N2CCCC2=O)c1 | – | inactive: -12.2% |
| Cc1cccc(Nc2nc3ccccc3n3c(N)nnc23)c1 | inconclusive: 39.8 µM [inhibitor, partial curve] | – |
| O=c1cc(C(Cl)(Cl)Cl)oc2c1ccc1ccccc12 | – | inactive: -11.4% |
| O=S(=O)(O)c1cc(O)c(N=Nc2ccc(O)cc2O)c2ccccc12 | inconclusive: 35.5 µM [inhibitor, partial curve] | – |
| CCOc1ccc(-n2c(SC(C)C(=O)OC)nc3c([nH]c4ccccc43)c2=O)cc1 (stereo not given) | – | inactive: -30.4% |
| CCN1CCN(c2cc(N3CCN(C(=O)c4ccco4)CC3)c3c4c(onc24)-c2ccccc2C3=O)CC1 | inconclusive: 2.82 µM [inhibitor, full curve, poor fit] | – |
| NS(=O)(=O)c1cc(C(=O)OCC(=O)Nc2ccc(N3CCCCC3)cc2)ccc1Cl | inconclusive: 44.7 µM [inhibitor, partial curve, poor fit] | – |
| COc1cc([C@H]2Oc3cc([C@H]4Oc5cc(O)cc(O)c5C(=O)[C@@H]4O)ccc3O[C@@H]2CO)ccc1O | – | inactive: -21.2% |

3 successive compounds already listed:

| SMILES | Potency | activity change, negative = inhibition |
| --- | --- | --- |
| CN(C)S(=O)(=O)Oc1cccc(C(=O)Nc2ccc(Cl)cc2)c1 | inconclusive: 50.1 µM [inhibitor, partial curve, poor fit] | – |
| Cc1ccc(Nc2cc(-c3ccccc3)nc(C)n2)cc1 | inconclusive: 25.1 µM [inhibitor, partial curve, poor fit] | – |
| COc1c(Br)cc(Br)cc1/C=N/n1c(C)nnc1C | – | inactive: -16.7% |

Going on with the list:

| SMILES | Potency | activity change, negative = inhibition |
| --- | --- | --- |
| CN(Cc1ccccc1)C(=O)C1CCC(CNS(=O)(=O)c2ccc3c(c2)CCCC(=O)N3)CC1 (stereo not given) | – | inactive: -15.3% |
| CC(C(=O)Nc1ccc([N+](=O)[O-])cc1)N1CCN(C/C=C/c2ccccc2)CC1 (stereo not given) | – | inactive: -1.11% |
| O=Cc1ccc(OCC(=O)Nc2ccccc2C(F)(F)F)cc1 | inconclusive: 31.6 µM [inhibitor, partial curve] | – |
| Cc1cc(C(=O)CN2C(=O)NC(C)(c3ccc(F)c(F)c3)C2=O)c(C)n1C1CC1 (stereo not given) | – | inactive: -26.3% |
| O=C(Cn1c(=O)oc2cc(S(=O)(=O)NCc3ccccc3)ccc21)NCc1ccccc1Cl | inconclusive: 0.282 µM [inhibitor, full curve, poor fit] | – |
| Nc1ccc2nc(-c3ccc(O)cc3)sc2c1 | – | inactive: -17.1% |
| CCCSc1nc2cc(OC)c(OC)cc2c(=N)n1CCCN1CCOCC1 | – | inactive: -14.6% |
| CC(=O)NCCC(=O)Nc1nc(-c2c[nH]c3ccccc23)cs1 | inconclusive: 15.8 µM [inhibitor, partial curve] | – |
| Cc1cc(OCC(=O)N2CCN(c3cccc(Cl)c3)CC2)c2c(C)c(C)c(=O)oc2c1 | inconclusive: 89.1 µM [inhibitor, partial curve, poor fit] | – |
| CCc1nn(CC(=O)NCCCc2ccccc2)c(=O)c2cc3c(OC)cccc3n12 | inconclusive: 8.91 µM [inhibitor, partial curve] | – |
| O=C(O)CCc1nnc2cnc3ccccc3n12 | inconclusive: 5.01 µM [inhibitor, partial curve] | – |
| Cc1ccc(Cn2nnc3c(=O)n(Cc4cccc(C)c4)cnc32)cc1 | inconclusive: 0.631 µM [inhibitor, full curve, poor fit] | – |
| CCOC(=O)N(C)C[C@H]1OCc2cnnn2CCCC(=O)N([C@@H](C)CO)C[C@H]1C | inconclusive: 0.251 µM [inhibitor, full curve] | – |
| CCOC(=O)C(C)Sc1nc(=O)n2ccccc2n1 (stereo not given) | – | inactive: -4.81% |
| COc1ccc(S(=O)(=O)O/N=C2\CCSc3ccc(C)cc32)cc1 | inconclusive: 44.7 µM [inhibitor, partial curve, poor fit] | – |
| O=C(CSc1nc2c([nH]c3ccccc32)c(=O)n1-c1ccc(Cl)cc1)N1CCCCCC1 | – | inconclusive: -36.6% [inhibitor] |
| COc1cccc(-c2csc(-c3c(N)c(C(=O)c4ccccc4)n4ccccc34)n2)c1 | inconclusive: 0.398 µM [inhibitor, full curve, poor fit] | – |
| O=C(c1ccc2c(c1)OCO2)C1CCCN(Cc2cccn2-c2cccnc2)C1 (stereo not given) | inconclusive: 3.98 µM [inhibitor, partial curve] | – |
| COc1ccc(C(=O)NCCS(=O)(=O)NCc2ccc(F)cc2)cc1 | – | inactive: -12% |
| COc1cc(NC(=O)c2ccccc2[N+](=O)[O-])c(C(=O)O)cc1OC | inconclusive: 0.141 µM [inhibitor, full curve, poor fit] | – |
| Cc1nc2c(C(=O)NCc3ccccc3Cl)cnn2c(C)c1Cc1ccccc1 | – | inconclusive: -28.1% [inhibitor] |
| CCOc1ccc(Nc2ncnc3c2cnn3-c2ccc(F)cc2)cc1 | inconclusive: 6.31 µM [inhibitor, full curve, poor fit] | – |

| SMILES | Potency | activity change, negative = inhibition |
| --- | --- | --- |
| Cn1c2c(c(=O)n(C)c1=O)[C@@]1(C(=O)Nc3ccccc31)C(C#N)=C(N)O2 | – | inactive: -16.7% |
| Sc1nnc(-c2ccc(Cl)cc2)n1Cc1ccccc1 | inconclusive: 44.7 µM [inhibitor, partial curve, poor fit] | – |
| COc1cc(NC(=O)N2CCC3(CC2)Nc2ccccc2-n2cccc23)cc(OC)c1OC | inconclusive: 70.8 µM [inhibitor, partial curve, poor fit] | – |
| Cc1ccccc1C(=O)N1CCC(C(=O)NC2CCCCCC2)CC1 | inconclusive: 6.31 µM [inhibitor, single point] | – |
| CC(C)(C)c1ccc(C(=O)Nc2sc3c(c2C(=O)O)CCC3)cc1 | inconclusive: 50.1 µM [inhibitor, partial curve, poor fit] | – |
| O=C(c1ccc(NC2=NC3CS(=O)(=O)CC3S2)cc1)N1CCc2ccccc2C1 (stereo not given) | inconclusive: 39.8 µM [inhibitor, single point] | – |
| CCOc1ccccc1NC(=O)CSc1ncc(S(=O)(=O)c2ccc(C)c(C)c2)c(N)n1 | – | inactive: -23.6% |
| CCOC(=O)N1CC=C2C(C#N)=C(N)C(C#N)(C#N)[C@H](c3ccccc3OCC)[C@H]2C1 | – | inactive: -24.4% |
| CCC1=Nc2cc(C(=O)NCc3ccco3)ccc2Sc2ccc(Cl)cc21 | inconclusive: 44.7 µM [inhibitor, partial curve] | – |
| CCCCc1ccc(/C=C(\C#N)C(N)=S)s1 | inconclusive: 39.8 µM [inhibitor, partial curve, poor fit] | – |
| Cc1ccc(S(=O)(=O)c2nc(-c3cccs3)oc2SC(C)C)cc1 | – | inactive: -34.8% |
| COc1ccc(-n2nc3ccc(N)cc3n2)cc1 | inconclusive: 7.94 µM [inhibitor, full curve] | – |
| CN(C)c1ccc(C2NCCS2)cc1 (stereo not given) | – | inactive: -18.5% |
| COc1ccc(C(=O)NCc2n[nH]c(=S)n2-c2ccccc2)cc1OC | inconclusive: 3.16 µM [inhibitor, partial curve] | – |
| O=C(CSc1c2c(nc3cc(Cl)ccc13)CCCC2)N1CCN(c2ccccc2F)CC1 | – | inactive: -19.2% |
| Cc1cccc(N2C(=O)/C(=C\c3ccc(C(=O)O)cc3)c3ccccc3C2=O)c1 | inconclusive: 31.6 µM [inhibitor, partial curve] | – |
| CCOC(=O)c1c(CSc2ccccc2)n(C)c2cc(Br)c(OCC(O)CNC(CO)(CO)CO)cc12 (stereo not given) | inconclusive: 39.8 µM [inhibitor, partial curve, poor fit] | – |
| COc1cc(/C=C(/C#N)c2nc3ccccc3[nH]2)ccc1OCc1ccc(C(=O)O)o1 | inconclusive: 35.5 µM [inhibitor, partial curve, poor fit] | – |
| CCc1ccccc1NC(=O)c1ccc(=O)n(Cc2ccc(F)cc2)c1 | inconclusive: 0.282 µM [inhibitor, full curve] | – |
| C[C@@H]1CN([C@H](C)CO)C(=O)CCCn2nncc2CO[C@H]1CN(C)C(=O)c1ccc(N2CCN(C)CC2)cc1 | inconclusive: 0.251 µM [inhibitor, full curve] | – |
| COc1ccccc1-c1cccc([C@@H]2C[C@H]3[C@H](CON3C)CN2C(=O)CCc2ccccc2)c1 | inconclusive: 44.7 µM [inhibitor, partial curve, poor fit] | – |
